Key:
[1] = target: T1, OATP1B1 (Homo sapiens, UniProt Q9Y6L6); experiment: Competitive counterflow (CCF) assay, efflux of preloaded [3H]-EβG in OATP1B1-overexpressing HEK293 cells; conditions: 1, 10 and 100 μmol/L
T1 sequence (Q9Y6L6 1-691): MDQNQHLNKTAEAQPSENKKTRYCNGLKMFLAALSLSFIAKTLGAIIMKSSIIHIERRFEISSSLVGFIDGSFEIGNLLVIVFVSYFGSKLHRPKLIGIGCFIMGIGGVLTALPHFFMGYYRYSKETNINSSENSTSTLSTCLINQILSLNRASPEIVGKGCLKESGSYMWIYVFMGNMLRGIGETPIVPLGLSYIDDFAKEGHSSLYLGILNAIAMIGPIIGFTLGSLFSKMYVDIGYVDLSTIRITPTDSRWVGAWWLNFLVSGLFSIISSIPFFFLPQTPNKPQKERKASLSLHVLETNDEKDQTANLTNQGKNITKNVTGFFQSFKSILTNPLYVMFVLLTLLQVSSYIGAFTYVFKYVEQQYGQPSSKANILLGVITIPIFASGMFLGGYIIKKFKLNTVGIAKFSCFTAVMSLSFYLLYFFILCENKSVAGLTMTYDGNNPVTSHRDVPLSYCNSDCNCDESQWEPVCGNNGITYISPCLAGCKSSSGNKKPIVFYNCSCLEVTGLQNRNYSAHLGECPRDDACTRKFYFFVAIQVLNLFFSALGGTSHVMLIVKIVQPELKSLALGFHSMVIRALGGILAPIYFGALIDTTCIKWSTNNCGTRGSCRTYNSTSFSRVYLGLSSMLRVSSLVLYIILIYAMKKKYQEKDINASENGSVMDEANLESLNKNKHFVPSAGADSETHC
Method: Cellular accumulation assays were performed in human embryonic kidney cells (HEK293; RRID: CVCL_0045) that were genetically engineered to overexpress human OATP1B1 ([23]–[25]). Cell lines were authenticated by Applied Biosystems AmpFISTR Identifiler testing with PCR amplification. […] All cells were used within passage 30 and verified to be Mycoplasma-free using the MycoAlert Mycoplasma Detection Kit (Lonza). At 80% to 90% confluency, cells were seeded on poly-D-lysine–coated 96-well plates 24 hours prior to the assay (2,500 cells/well), and expression of OATP1B1 was induced with 1 μg/mL doxycycline in phenol red–free DMEM.
The CCF assay uses OATP1B1-overexpressing HEK293 cells seeded and cultured as described above. During the study, cells were preincubated at room temperature (∼ 20°C) with 0.01 μmol/L EβG in prewarmed serum-free and phenol red–free DMEM for 1 hour. Following preincubation, each well was spiked with 1 μL of a stock solution containing 0.1, 1, or 10 mmol/L of positive control (EβG), negative control (glucose), test compound dissolved in Dimethylsulfoxide (DMSO), or DMSO only as a vehicle control. […] Total radioactivity was determined on a MicroBeta microplate scintillation counter (PerkinElmer), and the resulting counts were then normalized to total protein as determined using a Pierce protein assay (Thermo Fisher Scientific).

[2] = system: OATP1B1; conditions: cited from earlier work

Row | Structure (SMILES) | pattern of efflux vs concentration in CCF assay [1] | IC50 [2]
1 | COc1cc(OC)cc(N(CCNC(C)C)c2ccc3ncc(-c4cnn(C)c4)nc3c2)c1 [Erdafitinib] | clearly dependent on concentration | 
2 | C=CC(=O)N1CC[C@H](n2nc(C#Cc3cc(OC)cc(OC)c3)c3c(N)ncnc32)C1 [Futibatinib] | solely at lower concentrations | 2840 nM
